Assay results taken from publication PMC9616960.

The chains behind the UniProt entries cited, without tags or fusion partners. Residues count along the entry.
UniProt P18293, residues 29-1057: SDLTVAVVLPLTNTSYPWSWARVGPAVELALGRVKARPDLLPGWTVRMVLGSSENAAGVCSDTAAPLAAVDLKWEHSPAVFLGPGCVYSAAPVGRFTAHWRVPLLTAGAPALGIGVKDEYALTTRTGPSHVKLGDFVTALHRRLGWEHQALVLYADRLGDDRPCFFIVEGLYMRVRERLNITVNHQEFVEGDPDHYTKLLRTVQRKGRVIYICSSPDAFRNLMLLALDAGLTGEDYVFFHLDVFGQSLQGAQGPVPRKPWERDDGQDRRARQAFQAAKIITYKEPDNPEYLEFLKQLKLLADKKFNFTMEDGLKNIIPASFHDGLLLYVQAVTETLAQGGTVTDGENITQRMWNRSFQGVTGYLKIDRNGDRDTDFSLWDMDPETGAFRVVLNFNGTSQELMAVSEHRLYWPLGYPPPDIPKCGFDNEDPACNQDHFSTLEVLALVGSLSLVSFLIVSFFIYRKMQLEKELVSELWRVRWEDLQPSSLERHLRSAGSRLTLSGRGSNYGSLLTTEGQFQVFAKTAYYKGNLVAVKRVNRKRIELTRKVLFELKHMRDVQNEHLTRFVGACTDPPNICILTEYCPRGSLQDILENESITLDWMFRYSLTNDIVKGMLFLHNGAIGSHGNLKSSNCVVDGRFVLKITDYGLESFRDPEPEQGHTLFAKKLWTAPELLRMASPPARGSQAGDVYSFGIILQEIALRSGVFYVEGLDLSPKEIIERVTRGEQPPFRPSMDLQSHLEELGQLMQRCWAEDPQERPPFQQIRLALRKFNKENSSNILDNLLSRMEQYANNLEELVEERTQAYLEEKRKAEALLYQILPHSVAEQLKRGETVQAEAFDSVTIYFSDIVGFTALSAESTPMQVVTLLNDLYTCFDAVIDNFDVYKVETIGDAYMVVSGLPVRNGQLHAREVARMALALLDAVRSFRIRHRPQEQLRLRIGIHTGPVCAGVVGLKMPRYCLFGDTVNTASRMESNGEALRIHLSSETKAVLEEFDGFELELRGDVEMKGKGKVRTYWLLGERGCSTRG
UniProt O89039: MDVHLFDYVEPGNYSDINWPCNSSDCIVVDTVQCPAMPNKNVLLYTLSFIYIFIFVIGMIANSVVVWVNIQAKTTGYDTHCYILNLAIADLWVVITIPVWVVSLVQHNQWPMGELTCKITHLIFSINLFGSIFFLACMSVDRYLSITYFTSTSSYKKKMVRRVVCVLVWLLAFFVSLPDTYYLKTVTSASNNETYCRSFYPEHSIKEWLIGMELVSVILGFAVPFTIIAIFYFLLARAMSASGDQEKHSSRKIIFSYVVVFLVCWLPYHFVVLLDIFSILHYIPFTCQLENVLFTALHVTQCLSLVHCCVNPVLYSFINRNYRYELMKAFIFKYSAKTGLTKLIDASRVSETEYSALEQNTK
UniProt Q80TS7: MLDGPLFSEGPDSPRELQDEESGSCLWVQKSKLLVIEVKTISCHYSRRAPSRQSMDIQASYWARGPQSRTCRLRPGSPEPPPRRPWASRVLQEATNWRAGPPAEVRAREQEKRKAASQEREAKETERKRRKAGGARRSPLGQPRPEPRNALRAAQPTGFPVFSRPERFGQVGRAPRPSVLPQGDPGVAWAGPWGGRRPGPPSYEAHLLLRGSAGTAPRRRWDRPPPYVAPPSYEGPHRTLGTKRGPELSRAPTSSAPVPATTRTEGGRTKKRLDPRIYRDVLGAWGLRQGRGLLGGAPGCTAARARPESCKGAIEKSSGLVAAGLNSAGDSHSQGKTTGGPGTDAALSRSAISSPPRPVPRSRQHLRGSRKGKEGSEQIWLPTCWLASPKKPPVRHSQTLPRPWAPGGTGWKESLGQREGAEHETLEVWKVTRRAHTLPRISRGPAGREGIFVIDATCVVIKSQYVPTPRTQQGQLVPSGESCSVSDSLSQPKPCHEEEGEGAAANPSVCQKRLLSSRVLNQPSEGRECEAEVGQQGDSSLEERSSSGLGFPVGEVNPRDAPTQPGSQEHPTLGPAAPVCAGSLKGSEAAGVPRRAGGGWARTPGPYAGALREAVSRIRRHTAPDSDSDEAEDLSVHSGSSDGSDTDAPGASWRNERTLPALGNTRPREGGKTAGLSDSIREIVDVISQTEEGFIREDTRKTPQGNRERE
UniProt O88382: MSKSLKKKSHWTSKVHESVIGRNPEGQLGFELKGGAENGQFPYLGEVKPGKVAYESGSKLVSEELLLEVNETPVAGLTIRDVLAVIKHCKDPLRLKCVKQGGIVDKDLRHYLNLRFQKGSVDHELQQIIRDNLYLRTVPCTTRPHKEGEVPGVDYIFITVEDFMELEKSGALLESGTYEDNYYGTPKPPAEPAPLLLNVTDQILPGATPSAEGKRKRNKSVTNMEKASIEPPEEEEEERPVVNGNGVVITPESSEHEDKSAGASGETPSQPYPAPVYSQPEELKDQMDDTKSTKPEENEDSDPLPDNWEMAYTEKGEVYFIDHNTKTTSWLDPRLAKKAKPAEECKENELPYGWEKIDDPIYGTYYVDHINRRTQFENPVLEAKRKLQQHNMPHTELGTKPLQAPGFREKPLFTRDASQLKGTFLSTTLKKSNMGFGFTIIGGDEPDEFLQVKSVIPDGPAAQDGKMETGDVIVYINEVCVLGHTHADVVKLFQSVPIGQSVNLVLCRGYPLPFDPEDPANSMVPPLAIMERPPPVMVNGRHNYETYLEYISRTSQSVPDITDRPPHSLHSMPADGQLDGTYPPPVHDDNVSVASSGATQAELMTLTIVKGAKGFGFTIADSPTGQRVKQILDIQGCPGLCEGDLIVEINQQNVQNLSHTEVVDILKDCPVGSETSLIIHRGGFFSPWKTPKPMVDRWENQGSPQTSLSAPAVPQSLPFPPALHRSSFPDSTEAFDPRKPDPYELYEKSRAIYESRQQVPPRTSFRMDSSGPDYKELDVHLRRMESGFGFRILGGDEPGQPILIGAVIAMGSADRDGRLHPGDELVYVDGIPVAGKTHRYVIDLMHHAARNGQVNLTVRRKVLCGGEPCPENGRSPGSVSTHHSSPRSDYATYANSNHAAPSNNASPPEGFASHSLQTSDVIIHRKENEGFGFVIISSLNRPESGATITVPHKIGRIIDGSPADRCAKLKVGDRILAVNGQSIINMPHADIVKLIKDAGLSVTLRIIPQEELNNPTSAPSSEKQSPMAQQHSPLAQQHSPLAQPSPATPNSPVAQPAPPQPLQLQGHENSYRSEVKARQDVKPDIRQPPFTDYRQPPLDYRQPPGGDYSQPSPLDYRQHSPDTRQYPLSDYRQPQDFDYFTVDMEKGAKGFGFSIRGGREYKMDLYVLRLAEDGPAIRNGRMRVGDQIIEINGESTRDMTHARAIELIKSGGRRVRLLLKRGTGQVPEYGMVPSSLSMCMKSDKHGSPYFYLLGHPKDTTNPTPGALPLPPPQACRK
UniProt Q9QZS7, residues 37-1256: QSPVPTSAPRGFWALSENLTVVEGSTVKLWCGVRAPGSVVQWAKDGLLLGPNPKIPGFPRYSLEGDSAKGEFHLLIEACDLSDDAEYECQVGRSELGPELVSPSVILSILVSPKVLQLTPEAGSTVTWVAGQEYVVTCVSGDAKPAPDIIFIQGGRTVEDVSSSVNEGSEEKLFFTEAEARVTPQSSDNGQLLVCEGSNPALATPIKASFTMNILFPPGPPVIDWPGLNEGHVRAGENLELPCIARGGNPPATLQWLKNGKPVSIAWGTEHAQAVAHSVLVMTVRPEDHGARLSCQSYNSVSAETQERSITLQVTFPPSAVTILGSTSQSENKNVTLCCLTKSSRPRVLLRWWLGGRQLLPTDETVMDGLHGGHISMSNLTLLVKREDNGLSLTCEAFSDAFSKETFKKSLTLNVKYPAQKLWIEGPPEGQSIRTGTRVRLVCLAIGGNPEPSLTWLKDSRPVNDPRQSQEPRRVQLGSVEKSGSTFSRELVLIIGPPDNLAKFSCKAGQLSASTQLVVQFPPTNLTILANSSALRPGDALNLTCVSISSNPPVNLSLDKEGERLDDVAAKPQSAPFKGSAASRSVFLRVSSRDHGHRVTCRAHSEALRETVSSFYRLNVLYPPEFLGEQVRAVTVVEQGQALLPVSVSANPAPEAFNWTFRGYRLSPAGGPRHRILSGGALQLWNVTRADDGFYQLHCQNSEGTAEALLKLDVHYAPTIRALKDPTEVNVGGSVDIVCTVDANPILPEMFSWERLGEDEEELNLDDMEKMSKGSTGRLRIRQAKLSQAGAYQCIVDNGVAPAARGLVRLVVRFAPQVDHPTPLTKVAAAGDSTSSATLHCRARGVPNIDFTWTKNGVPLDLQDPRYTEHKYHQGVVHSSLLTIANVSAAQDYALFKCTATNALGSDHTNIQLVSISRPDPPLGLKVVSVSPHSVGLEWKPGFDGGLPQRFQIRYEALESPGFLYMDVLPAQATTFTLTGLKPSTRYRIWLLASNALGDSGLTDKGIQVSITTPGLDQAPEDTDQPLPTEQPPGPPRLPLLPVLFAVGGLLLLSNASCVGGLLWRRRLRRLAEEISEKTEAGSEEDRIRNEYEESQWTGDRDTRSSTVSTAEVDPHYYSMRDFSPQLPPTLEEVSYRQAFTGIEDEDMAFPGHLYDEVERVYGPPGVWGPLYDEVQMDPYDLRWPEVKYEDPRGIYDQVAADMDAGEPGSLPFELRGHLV
UniProt P11505: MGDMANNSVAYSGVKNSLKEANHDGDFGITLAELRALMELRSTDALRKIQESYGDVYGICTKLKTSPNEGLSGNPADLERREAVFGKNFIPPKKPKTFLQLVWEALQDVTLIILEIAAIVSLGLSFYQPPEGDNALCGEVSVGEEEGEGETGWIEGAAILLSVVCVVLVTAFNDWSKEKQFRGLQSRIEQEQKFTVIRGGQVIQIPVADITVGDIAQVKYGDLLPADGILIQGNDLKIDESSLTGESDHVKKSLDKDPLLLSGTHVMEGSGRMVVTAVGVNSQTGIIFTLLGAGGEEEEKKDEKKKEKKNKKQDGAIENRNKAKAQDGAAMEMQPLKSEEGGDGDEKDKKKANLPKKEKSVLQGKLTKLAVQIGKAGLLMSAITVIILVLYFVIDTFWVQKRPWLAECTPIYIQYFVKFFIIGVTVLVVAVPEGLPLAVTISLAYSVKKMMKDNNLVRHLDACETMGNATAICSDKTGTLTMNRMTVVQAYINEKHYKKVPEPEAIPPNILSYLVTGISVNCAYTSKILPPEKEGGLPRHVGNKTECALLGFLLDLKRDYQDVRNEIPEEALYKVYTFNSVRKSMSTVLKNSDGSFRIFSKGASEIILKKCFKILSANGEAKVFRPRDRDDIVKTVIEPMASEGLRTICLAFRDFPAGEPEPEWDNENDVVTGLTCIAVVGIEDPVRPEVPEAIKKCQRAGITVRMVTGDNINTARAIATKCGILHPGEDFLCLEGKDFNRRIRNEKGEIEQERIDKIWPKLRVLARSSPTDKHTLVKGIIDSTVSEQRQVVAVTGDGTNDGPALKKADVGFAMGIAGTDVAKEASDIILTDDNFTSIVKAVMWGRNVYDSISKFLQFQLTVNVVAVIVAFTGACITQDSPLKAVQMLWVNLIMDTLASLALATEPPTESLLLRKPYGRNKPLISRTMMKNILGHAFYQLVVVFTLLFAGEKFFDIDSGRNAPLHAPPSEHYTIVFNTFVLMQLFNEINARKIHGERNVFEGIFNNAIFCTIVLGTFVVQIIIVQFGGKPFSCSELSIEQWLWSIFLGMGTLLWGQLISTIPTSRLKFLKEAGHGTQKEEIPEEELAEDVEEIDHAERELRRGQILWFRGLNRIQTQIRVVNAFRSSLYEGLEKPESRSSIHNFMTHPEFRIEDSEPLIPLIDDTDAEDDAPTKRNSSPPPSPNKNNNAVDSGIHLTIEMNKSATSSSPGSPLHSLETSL
UniProt Q62844: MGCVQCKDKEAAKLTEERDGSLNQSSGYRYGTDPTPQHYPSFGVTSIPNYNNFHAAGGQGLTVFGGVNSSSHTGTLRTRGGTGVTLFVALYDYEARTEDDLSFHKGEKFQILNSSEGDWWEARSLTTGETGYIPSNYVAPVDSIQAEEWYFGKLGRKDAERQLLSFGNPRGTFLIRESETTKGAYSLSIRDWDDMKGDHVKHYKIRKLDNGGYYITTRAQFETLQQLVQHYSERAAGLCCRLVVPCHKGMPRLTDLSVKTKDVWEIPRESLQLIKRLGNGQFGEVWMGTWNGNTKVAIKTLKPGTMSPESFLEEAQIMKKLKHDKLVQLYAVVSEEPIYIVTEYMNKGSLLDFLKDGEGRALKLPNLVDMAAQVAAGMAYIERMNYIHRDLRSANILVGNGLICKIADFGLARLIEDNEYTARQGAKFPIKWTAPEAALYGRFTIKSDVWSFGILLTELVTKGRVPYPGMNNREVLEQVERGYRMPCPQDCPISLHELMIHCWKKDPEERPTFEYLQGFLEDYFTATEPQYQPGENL

Experiments:
[1] = target: T1, Podocin (mouse (endogenous in mouse glomeruli)) (UniProt Q91X05); assay: affinity purification with mass spectrometry; two anti-Podocin ABs immobilised on magnetic beads, two hours with CL-47 or CL-91 solubilisates of glomerular membrane fractions of wildtype mice; control: Podocin knockout mice; eluates by nano-LC-MS/MS; specific: tnR >0.25 with both ABs in either of two solubilisation conditions
T1 sequence: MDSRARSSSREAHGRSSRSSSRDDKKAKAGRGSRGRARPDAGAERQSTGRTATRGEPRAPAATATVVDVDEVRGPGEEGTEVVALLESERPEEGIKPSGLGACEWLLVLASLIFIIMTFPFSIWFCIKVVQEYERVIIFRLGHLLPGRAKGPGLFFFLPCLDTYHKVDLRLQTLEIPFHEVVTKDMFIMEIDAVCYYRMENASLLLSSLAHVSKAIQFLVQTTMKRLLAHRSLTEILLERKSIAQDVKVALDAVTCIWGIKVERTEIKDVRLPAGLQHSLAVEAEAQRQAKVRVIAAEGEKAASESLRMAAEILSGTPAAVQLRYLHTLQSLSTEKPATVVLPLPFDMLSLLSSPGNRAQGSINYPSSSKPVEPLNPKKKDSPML

[2] = target: T2, Neph1 (not stated (endogenous in glomeruli of rat or mouse)) (UniProt Q6X936); assay: affinity purification with mass spectrometry; three anti-Nephrin/Neph1 ABs immobilised on magnetic beads, two hours with CL-47 or CL-91 solubilisates of glomerular membrane fractions; eluates by nano-LC-MS/MS; specific: tnR >=0.2 against three target-unrelated ABs/IgG, in at least two anti-Nephrin/Neph1 APs
T2 sequence: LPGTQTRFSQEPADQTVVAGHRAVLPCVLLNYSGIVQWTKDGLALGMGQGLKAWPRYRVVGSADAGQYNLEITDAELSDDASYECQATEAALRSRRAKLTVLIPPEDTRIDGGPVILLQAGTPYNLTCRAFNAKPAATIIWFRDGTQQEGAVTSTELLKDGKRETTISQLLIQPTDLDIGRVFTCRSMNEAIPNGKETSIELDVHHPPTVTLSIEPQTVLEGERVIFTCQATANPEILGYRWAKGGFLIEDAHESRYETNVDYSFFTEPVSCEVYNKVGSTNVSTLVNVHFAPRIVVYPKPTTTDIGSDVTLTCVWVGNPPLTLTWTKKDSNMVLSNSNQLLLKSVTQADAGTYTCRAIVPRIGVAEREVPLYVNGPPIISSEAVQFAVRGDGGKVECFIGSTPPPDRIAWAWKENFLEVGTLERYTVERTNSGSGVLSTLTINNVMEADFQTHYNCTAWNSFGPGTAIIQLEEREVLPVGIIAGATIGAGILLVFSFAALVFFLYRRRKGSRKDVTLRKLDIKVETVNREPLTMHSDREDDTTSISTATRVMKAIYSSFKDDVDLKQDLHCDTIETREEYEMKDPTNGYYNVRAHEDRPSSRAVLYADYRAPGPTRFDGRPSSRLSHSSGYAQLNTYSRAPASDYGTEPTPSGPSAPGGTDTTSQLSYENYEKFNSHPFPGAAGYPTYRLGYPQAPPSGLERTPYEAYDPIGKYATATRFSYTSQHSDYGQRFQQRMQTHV

[3] = target: T3, Nephrin (not stated (endogenous in glomeruli of rat or mouse)) (UniProt Q9R044); assay: as above
T3 sequence: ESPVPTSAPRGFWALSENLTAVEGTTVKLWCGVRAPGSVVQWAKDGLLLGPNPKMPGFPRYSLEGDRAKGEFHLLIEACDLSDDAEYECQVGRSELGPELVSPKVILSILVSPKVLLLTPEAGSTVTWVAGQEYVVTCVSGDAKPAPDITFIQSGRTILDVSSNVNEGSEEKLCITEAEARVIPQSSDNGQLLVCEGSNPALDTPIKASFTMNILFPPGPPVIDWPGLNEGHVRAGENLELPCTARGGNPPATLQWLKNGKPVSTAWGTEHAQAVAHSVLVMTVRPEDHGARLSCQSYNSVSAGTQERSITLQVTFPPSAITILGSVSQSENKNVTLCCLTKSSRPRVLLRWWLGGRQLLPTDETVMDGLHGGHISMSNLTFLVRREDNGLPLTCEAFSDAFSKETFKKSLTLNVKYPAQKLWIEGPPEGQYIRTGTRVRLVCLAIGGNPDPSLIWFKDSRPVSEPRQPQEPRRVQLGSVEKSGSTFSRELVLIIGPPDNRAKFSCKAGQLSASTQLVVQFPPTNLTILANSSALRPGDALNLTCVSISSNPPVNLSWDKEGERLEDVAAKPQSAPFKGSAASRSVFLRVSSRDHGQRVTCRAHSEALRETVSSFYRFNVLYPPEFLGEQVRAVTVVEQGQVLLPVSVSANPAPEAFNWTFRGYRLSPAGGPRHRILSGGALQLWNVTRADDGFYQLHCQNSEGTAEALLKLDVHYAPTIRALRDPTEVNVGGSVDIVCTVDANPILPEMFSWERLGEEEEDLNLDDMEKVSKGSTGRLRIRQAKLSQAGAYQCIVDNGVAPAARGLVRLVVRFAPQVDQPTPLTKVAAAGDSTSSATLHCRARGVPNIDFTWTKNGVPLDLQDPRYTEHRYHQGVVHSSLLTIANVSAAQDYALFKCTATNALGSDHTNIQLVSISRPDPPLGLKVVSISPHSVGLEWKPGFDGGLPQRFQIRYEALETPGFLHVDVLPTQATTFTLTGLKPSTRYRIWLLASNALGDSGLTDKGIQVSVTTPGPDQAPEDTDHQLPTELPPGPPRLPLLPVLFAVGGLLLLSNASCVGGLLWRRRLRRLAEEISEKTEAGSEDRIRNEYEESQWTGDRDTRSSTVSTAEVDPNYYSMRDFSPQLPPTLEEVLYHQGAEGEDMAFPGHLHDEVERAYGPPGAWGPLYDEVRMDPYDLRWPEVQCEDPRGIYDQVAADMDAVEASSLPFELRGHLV

For “ABC sub-family A member 9 (from UniProt Q8K449 1-1623)”, which binding [1] is on record?
Its binding is “binds”.

How did the binding [1] turn out when ANPRA (from UniProt P18293 29-1057) was run?
The binding was “binds”.

How did the binding [2] turn out when ANPRA (from UniProt P18910 29-1057) was run?
The binding was “binds”.

And the binding [3]?
The binding was “binds”.

Which binding [2] does the source give for Amyloid precursor protein here?
The binding was “binds”.

And the binding [3]?
Its binding is “binds”.

With “Atypical chemokine receptor 3 (from UniProt O89039 1-362)” as the substance, how does the binding [2] read?
The binding was “binds”.

And the binding [3]?
The binding was “binds”.

With Dendrin (from UniProt Q80TS7 1-710) as the substance, how does the binding [1] read?
The binding was “binds”.

Which binding [1] does the source give for IQGAP2 (from UniProt Q3UQ44 1-1575) here?
Its binding is “binds”.

Which binding [1] does the source give for “Integrin alpha-3 (mouse (endogenous in mouse glomeruli))” here?
The binding was “binds”.

With Integrin alpha-V as the substance, how does the binding [2] read?
Its binding is “binds”.

And the binding [3]?
Its binding is “binds”.

Which results are given for MAGI-2 (from UniProt O88382 1-1277)?
binding [2]: binds; binding [3]: binds

Which binding [1] does the source give for MAGI-2 (from UniProt Q9WVQ1 1-1275) here?
Its binding is “binds”.

How did the binding [1] turn out when Neph1 (from UniProt Q80W68 48-789) was run?
Its binding is “binds”.

For Nephrin (from UniProt Q9QZS7 37-1256), which binding [1] is on record?
The binding was “binds”.

Which binding [2] does the source give for Nicastrin (from UniProt Q8CGU6 35-708) here?
Its binding is “binds”.

And the binding [3]?
The binding was “binds”.

What does the source list for PMCA1 (from UniProt P11505 1-1220)?
binding [2]: binds; binding [3]: binds

“tyrosine kinase Fyn (from UniProt Q62844 1-537)” was tested. Which binding [2] did it give?
Its binding is “binds”.

And the binding [3]?
Its binding is “binds”.

Results are given in words; binding and its absence hold for the method and conditions named. In cells and extracts the contact can be indirect. These calls come from enrichment with a bait or labelling near it, and not all partners need be listed.
